Test results: PubChem BioAssay AID2685 (National Center for Advancing Translational Sciences (NCATS), 2010)
The list shows a part of the results. The main result of the screen is listed elsewhere. These columns were measured beside it and carry no call. Compounds called inactive in the main read-out are mostly missing here. The note in brackets gives the kind of curve behind each potency; many fits are weak.

Test: qHTS Assay for Lipid Storage Modulators in Drosophila S3 Cells;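 on cell number change: cells counted by Cell Tracker Red CMTPX staining in the red channel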
Conditions: BODIPY lipid droplet fluorescence, 18-24 h; for cell number change: measured here: cell count max response, cells fed with added oleic acid
Procedure, shortened: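 Drosophila S3 cells got compounds at several concentrations plus oleic acid (400 uM solution). Laser-scanning cytometry with 488 nm excitation read lipid droplets at 500-530 nm and cells at 575-640 nm. Percent activity was relative to 20 uM Triacsin C.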

[1] = measured here: lipid fluorescence (Fed channel) AC50, cells fed with added oleic acid
[2] = measured here: cell number channel AC50, cells fed with added oleic acid

Row | SMILES | cell number change [%] | AC50 [1] | AC50 [2]
1 | O=C(NC(=S)Nc1ccc(C(F)(F)F)cc1)c1csnn1 | -17 | – | –
2 | Cc1ccc(-c2csc(NC(=O)/C=C/c3cccs3)n2)cc1C | -18.1 | 20.6 µM [falling, single point] | –
3 | Cc1cccc(-c2n[nH]c(=S)n2/N=C/c2ccco2)c1 | -9.15 | 0.184 µM [falling, full curve, poor fit] | –
4 | CC(=O)Nc1ccc(NC(=O)CCn2c(=O)oc3ccccc32)cc1 | 8.97 | 11.6 µM [rising, partial curve] | –
5 | Clc1nnc(N/N=C/c2ccccc2)c2ccccc12 | – | – | 5.8 µM [rising, single point]
6 | O=S(=O)(c1ccccc1)N1CCC(Oc2ccc(-n3cnnn3)cc2)CC1 | 21.5 | – | –
7 | O=C(CSc1nc2ccccc2o1)N/N=C/c1ccco1 | 13 | 0.58 µM [rising, single point] | –
8 | O=C1NC(Cc2c[nH]c3ccccc23)C(=O)N1CCOc1ccc(F)cc1 (stereo not given) | – | 6.51 µM [rising, single point] | 6.51 µM [rising, single point]
9 | CC1CC(C)CN(c2ncc3c(n2)CC(c2ccccc2)CC3=O)C1 (stereo not given) | -0.881 | 2.31 µM [falling, partial curve, poor fit] | 3.26 µM [falling, partial curve]
10 | Cc1c(Cl)ccc2sc(NC(=O)C3CC3)nc12 | 6.34 | 29.1 µM [rising, single point] | –
11 | c1ccc(Nc2ccccn2)nc1 | -4.76 | 0.731 µM [falling, full curve, poor fit] | –
12 | CC(C)CC(=O)N1CCC(O)(CS(=O)(=O)Cc2ccccc2)CC1 | 24.7 | 3.66 µM [falling, single point] | –
13 | C=C1N(C)c2cc([N+](=O)[O-])c(N)cc2C1(C)C | 65.7 | 29.1 µM [rising, partial curve, poor fit] | –
14 | CN(CCOc1ccccc1)CC(O)COc1ccccc1 (stereo not given) | 24.8 | – | 0.411 µM [rising, full curve, poor fit]
15 | Cc1cccc(NC(=O)c2ccc(Cl)c(NC(=O)c3ccncc3)c2)c1C | 8.24 | 0.00517 µM [rising, full curve, poor fit] | –
16 | Cn1c(-c2cccc(Br)c2)cnc1NCc1cccnc1 | – | – | 0.58 µM [rising, single point]
17 | COC(=O)Cc1[nH]nc2c1C(C1C=CCCC1)C(C#N)=C(N)O2 (stereo not given) | 77.7 | – | 1.84 µM [rising, full curve, poor fit]
18 | CC(=O)NC(=O)c1cnn(-c2ccccc2)c1N | -9.85 | 25.9 µM [falling, single point] | –
19 | COc1ccc(CNC(=O)C(c2ccco2)N(C(=O)CNS(=O)(=O)c2ccccc2)c2ccccc2C)cc1 (stereo not given) | 18 | 8.2 µM [rising, partial curve] | –
20 | COc1ccc(C(=O)Nc2ccc(/C(C)=N/NC(=O)c3ccccc3O)cc2)cc1OC | 114 | 6.51 µM [falling, partial curve] | 6.51 µM [falling, partial curve]
21 | C=CCOC(=O)/C(=C/c1ccco1)NC(=O)/C=C/c1ccccc1 | 178 | 5.8 µM [rising, full curve] | 8.2 µM [rising, partial curve]

Compounds 2 to 5, quoted:
Row | SMILES | cell number change [%] | AC50 [1] | AC50 [2]
2 | Cc1ccc(-c2csc(NC(=O)/C=C/c3cccs3)n2)cc1C | -18.1 | 20.6 µM [falling, single point] | –
3 | Cc1cccc(-c2n[nH]c(=S)n2/N=C/c2ccco2)c1 | -9.15 | 0.184 µM [falling, full curve, poor fit] | –
4 | CC(=O)Nc1ccc(NC(=O)CCn2c(=O)oc3ccccc32)cc1 | 8.97 | 11.6 µM [rising, partial curve] | –
5 | Clc1nnc(N/N=C/c2ccccc2)c2ccccc12 | – | – | 5.8 µM [rising, single point]

Further records:

Row | SMILES | cell number change [%] | AC50 [1] | AC50 [2]
22 | Cc1ccc(NC(=O)COC(=O)CN2C(=O)NC3(CCCC3)C2=O)cc1F | 0.493 | 0.164 µM [rising, partial curve, poor fit] | –
23 | Cc1ccc(S(=O)(=O)c2nc(-c3ccco3)oc2SC(C)C)cc1 | 1.21 | 32.6 µM [rising, single point] | –
24 | COC(=O)COc1cccc(NS(=O)(=O)c2ccc(NC(C)=O)cc2)c1 | -69.1 | 16.4 µM [falling, partial curve] | 18.4 µM [falling, partial curve]
25 | CCCCCN1C(=O)Cn2c(nc3ccccc3c2=O)C1C (stereo not given) | 81.2 | – | –
26 | O=C(CSc1nc(=O)[nH]c2c1CCCC2)Nc1ccc(F)cc1F | -16.6 | 29.1 µM [falling, single point] | –
27 | CC1(C)Cc2c(c(-c3ccccc3)[nH]c(=O)c2C#N)CS1 | -0.86 | 29.1 µM [falling, single point] | –
28 | C#CCNC(=O)C1=C[C@H](c2ccc(Br)cc2)C[C@H](OCCCCO)O1 | 2.16 | 6.51 µM [rising, partial curve, poor fit] | –
29 | COc1ccc(OC)c(NC(=O)CN2CCN(C(=O)c3ccco3)CC2)c1 | 7.3 | – | 6.51 µM [rising, single point]
30 | CNC(=O)c1[nH]cnc1C(=O)N[C@@H](CC(C)C)C(=O)OCc1ccccc1 | -37.1 | – | 29.1 µM [falling, single point]
31 | COc1cc(CNn2nnnc2N)ccc1OCC(=O)NC(C)(C)C | 0.519 | 0.651 µM [falling, single point] | 0.731 µM [falling, full curve, poor fit]
32 | CCOC(=O)c1cccc(NC(=O)CCS(=O)(=O)c2ccc(Br)s2)c1 | 134 | 16.4 µM [rising, partial curve] | 9.2 µM [rising, partial curve]
33 | CCc1c(C#N)c(SCCC(=O)Nc2ccc(F)cc2)nc2c1C(=O)CC(C)(C)C2 | -3.25 | – | –
34 | O=C(NC1CC2CCC(C1)N2Cc1ccco1)c1ccccc1 (stereo not given) | -25.3 | 9.2 µM [falling, partial curve, poor fit] | –
35 | O=C(CSc1nc2ccc(NC(=O)C3CCCCC3)cc2s1)NCC1CCCO1 (stereo not given) | 4.08 | 20.6 µM [rising, single point] | –
36 | CC(=O)N1CCc2c(sc(NC(=O)CCS(=O)(=O)c3ccc(C)cc3)c2C(N)=O)C1 | 8.43 | – | –
37 | OCc1nc2ccccc2n1C/C=C/c1ccccc1 | -36.3 | – | 29.1 µM [falling, single point]
38 | CCOCCCNC(=O)c1cc(Sc2nnc(C)s2)nc2ccccc12 | 14 | 0.291 µM [rising, full curve, poor fit] | –
39 | Cc1onc(-c2ccccc2)c1C(=O)OCC(=O)Nc1ccc2c(c1)OCO2 | -13.8 | 2.31 µM [rising, single point] | –
40 | CCc1cc(=O)oc2cc(C)cc(OCC(=O)NCc3ccccn3)c12 | -6.23 | – | 0.00517 µM [falling, full curve, poor fit]
41 | COc1ccc(OC)c(C2NC(=O)N(C)C(C)=C2C(=O)OCc2ccccc2)c1 (stereo not given) | 11.4 | 0.259 µM [falling, full curve, poor fit] | –
42 | O=C(NC(CC(=O)N1CCN(c2ccccc2)CC1)c1ccccc1)c1ccccc1Cl (stereo not given) | – | 3.26 µM [rising, single point] | –

Row | SMILES | cell number change [%] | AC50 [1] | AC50 [2]
43 | CCNC(=O)c1cc(Br)ccc1Cl | -76 | – | 23.1 µM [falling, partial curve, poor fit]
44 | O=C(CCl)N(Cc1cc(=O)[nH]c2ccccc12)c1ccccc1 | 9.72 | 0.58 µM [rising, single point] | –
45 | Cc1ccc(-c2[nH]ncc2/C=N/n2c(COc3ccccc3C)nc3ccccc3c2=O)cc1 | -68.4 | – | 29.1 µM [falling, single point]
46 | CCOc1ccc(S(=O)(=O)N2CCC(C(=O)NC3CC3)CC2)cc1C | 25.2 | 0.206 µM [falling, single point] | –
47 | CC1(C)C(C(=O)O)N2C(=O)C(NC(=O)Cc3ccccc3)C2S1=O (stereo not given) | 27.7 | 9.2 µM [falling, single point] | –
48 | COc1ccc(OC)c(S(=O)(=O)N2CCCC(C(=O)NCc3ccco3)C2)c1 (stereo not given) | 16 | 6.51 µM [falling, single point] | –
49 | O=C(CO/N=C\c1ccccc1)Nc1ccccc1C(=O)N1CCOCC1 | -17.4 | 14.6 µM [falling, partial curve] | –
50 | CCOc1ccc(N(CC(=O)Nc2ccc(C)c(Cl)c2)S(C)(=O)=O)cc1 | 3.88 | – | –
51 | CC1Sc2ccc(S(=O)(=O)N3CCC(C(=O)NCc4ccccc4)CC3)cc2NC1=O (stereo not given) | 12.5 | 29.1 µM [falling, single point] | –
52 | CC(C)Cc1nnc(NC(=O)C2CC(=O)N(Cc3ccccc3)C2)s1 (stereo not given) | -1.74 | 1.03 µM [rising, full curve] | –
53 | N#Cc1nc(COc2ccc(F)cc2)oc1NCCCn1ccnc1 | 8.26 | 0.58 µM [rising, full curve] | 0.291 µM [rising, full curve, poor fit]
54 | Oc1[nH]c2ccccc2c1OCc1ccncc1 | -33.5 | 1.16 µM [falling, full curve] | 29.1 µM [falling, single point]
55 | O=C(O)c1ccnc(SCC(=O)c2ccccc2)c1 | – | 0.206 µM [falling, full curve, poor fit] | –
56 | CCOC(=O)CSc1c(-c2ccccc2)c2cc(Cl)ccc2[nH]c1=O | -6.79 | – | –
57 | O=C(N/N=C/c1cccnc1)/C(=C\c1cccs1)NC(=O)c1ccccc1 | 132 | 16.4 µM [rising, single point] | 29.1 µM [rising, single point]
58 | COc1ccc2c(C(=O)CCl)c[nH]c2c1 | -26.1 | 9.2 µM [falling, partial curve] | –
59 | CCCCN(C(=O)CCC(=O)Nc1cc(C)on1)C(C(=O)NC1CCCC1)c1ccc(OCC)cc1 (stereo not given) | -0.952 | – | –
60 | COc1cc(NS(=O)(=O)c2ccc(NC(=O)COc3ccc(C)cc3C)cc2)nc(OC)n1 | -13.2 | 4.11 µM [falling, single point] | –
61 | CC(C)(C)NC(=O)NC(=O)CN1CCN(C(c2ccccc2)c2ccccc2)CC1 | 13 | 6.51 µM [rising, single point] | 4.11 µM [rising, single point]
